Experimental data: the supplement of paper PMC4604168 (melanoma cell lines)
Some of the results follow. Single values are uncertain, as repeats are few or missing.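 Cells were imaged in 1,536-well plates, and nuclei stained with an antibody against cleaved PARP were counted against all DNA-stained nuclei to give the apoptosis fraction. Screening doses were chosen to leave most cells alive, and resting and induced cleaved-PARP levels differ strongly between cell lines.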

Tests used:
Assay in all cases: cleaved PARP positive nuclei fraction relative to DMSO control; melanoma cells; higher = more apoptosis
Settings in all cases: library dose: low library concentration; 72 h
501Mel = test system: 501Mel
A101D = test system: A101D
A2058 = test system: A2058
A375 = test system: A375
C32 = test system: C32
CBRC008 = test system: CBRC008 (line from a melanoma biopsy)
CBRC013 = test system: CBRC013 (line from a melanoma biopsy)
CBRC014 = test system: CBRC014 (line from a melanoma biopsy)
CBRC016 = test system: CBRC016 (line from a melanoma biopsy)
CBRC017 = test system: CBRC017 (line from a melanoma biopsy)
COLO792 = test system: COLO792
COLO800 = test system: COLO800
COLO829 = test system: COLO829
G361 = test system: G361
IPC-298 = test system: IPC-298
IST-MEL1 = test system: IST-MEL1
LB2518-MEL = test system: LB2518-MEL
LOXIMVI = test system: LOXIMVI
MEL-HO = test system: MEL-HO

| Structure (SMILES) | cleaved PARP positive nuclei fraction (501Mel) | cleaved PARP positive nuclei fraction (A101D) | cleaved PARP positive nuclei fraction (A2058) | cleaved PARP positive nuclei fraction (A375) | cleaved PARP positive nuclei fraction (C32) | cleaved PARP positive nuclei fraction (CBRC008) | cleaved PARP positive nuclei fraction (CBRC013) | cleaved PARP positive nuclei fraction (CBRC014) | cleaved PARP positive nuclei fraction (CBRC016) | cleaved PARP positive nuclei fraction (CBRC017) | cleaved PARP positive nuclei fraction (COLO792) | cleaved PARP positive nuclei fraction (COLO800) | cleaved PARP positive nuclei fraction (COLO829) | cleaved PARP positive nuclei fraction (G361) | cleaved PARP positive nuclei fraction (IPC-298) | cleaved PARP positive nuclei fraction (IST-MEL1) | cleaved PARP positive nuclei fraction (LB2518-MEL) | cleaved PARP positive nuclei fraction (LOXIMVI) | cleaved PARP positive nuclei fraction (MEL-HO) |
| --- | --- | --- | --- | --- | --- | --- | --- | --- | --- | --- | --- | --- | --- | --- | --- | --- | --- | --- | --- |
| NC(=O)c1ccc(N(C(N)=O)c2c(F)cccc2F)nc1-c1ccc(F)cc1F + O=C(CCCCCCC(=O)Nc1ccccc1)NO [vorinostat] (first compound 0.4 µM, partner dose 0.08 µM) | 106% | 155% | 125% | 35.8% | 42.1% | 39.4% | 53.1% | 74.7% | 93.4% | 91.5% | 127% | 51.8% | 257% | 104% | 31.1% | 102% | 108% | 36% | 144% |
| Cn1sc(=O)n(Cc2ccccc2)c1=O + COc1cc(Nc2ncc(F)c(Nc3ccc4c(n3)NC(=O)C(C)(C)O4)n2)cc(OC)c1OC [Tamatinib] (first compound 0.4 µM, partner dose 0.4 µM) | 74.5% | 100% | 138% | 247% | 117% | 194% | 107% | 74.5% | 100% | 75.3% | 274% | 124% | 89.8% | 119% | 235% | 188% | 375% | 62.7% | 107% |
| CCCCCCCCc1ccc(CCC(N)(CO)CO)cc1 [fingolimod] + O=C(O)c1ccc(-c2c[nH]c3ncc(-c4ccccc4)cc23)cc1C1CCCC1 [GSK650394] (first compound 2 µM, partner dose 0.16 µM) | 183% | 90.3% | 117% | 217% | 114% | 159% | 70.9% | 94.2% | 119% | 158% | 58.1% | 104% | 111% | 114% | 139% | 60.6% | 92.8% | 42.7% | 104% |
| Cn1sc(=O)n(Cc2ccccc2)c1=O + OCCn1cc(-c2cnc3nnn(Cc4ccc5ncccc5c4)c3n2)cn1 [PF04217903] (first compound 0.4 µM, partner dose 1 µM) | 110% | 75% | 50.8% | 37% | 141% | 96.5% | 80.4% | 64.9% | 58.7% | 102% | 132% | 88.4% | 103% | 157% | 89.2% | 29.7% | 41.9% | 102% | 73.9% |
| C[C@@H](N)c1ccc(C(=O)Nc2ccnc3[nH]ccc23)cc1 + O=C(O)c1ccc(-c2c[nH]c3ncc(-c4ccccc4)cc23)cc1C1CCCC1 [GSK650394] (first compound 0.4 µM, partner dose 0.16 µM) | 97% | 44.1% | 170% | 40.4% | 294% | 197% | 97.6% | 108% | 268% | 122% | 89.2% | 106% | 78.1% | 86.7% | 89% | 84.1% | 189% | 55.5% | 101% |
| COc1ccc(C2=N[C@@H](c3ccc(Cl)cc3)[C@@H](c3ccc(Cl)cc3)N2C(=O)N2CCNC(=O)C2)c(OC(C)C)c1 [Nutlin-3] + O=C(O)c1ccc(-c2c[nH]c3ncc(-c4ccccc4)cc23)cc1C1CCCC1 [GSK650394] (first compound 0.1 µM, partner dose 0.16 µM) | 243% | 93.8% | 60.4% | 159% | 80.8% | 468% | 152% | 120% | 267% | 138% | 80.1% | 141% | 174% | 234% | 60.9% | 67.8% | 98.2% | 67% | 153% |
| COc1ccc(C2=N[C@@H](c3ccc(Cl)cc3)[C@@H](c3ccc(Cl)cc3)N2C(=O)N2CCNC(=O)C2)c(OC(C)C)c1 [Nutlin-3] + NC(=O)Nc1cc(-c2cccc(F)c2)sc1C(=O)N[C@H]1CCCNC1 [AZD7762] (first compound 0.1 µM, partner dose 0.02 µM) | 87.5% | 105% | 76.6% | 279% | 158% | 213% | 120% | 110% | 73.5% | 143% | 51.8% | 106% | 75.9% | 69% | 81.9% | 18.3% | 85.2% | 54.6% | 61.5% |
| C[C@]1(O)C[C@@H](c2nc(-c3ccc4ccc(-c5ccccc5)nc4c3)c3c(N)nccn32)C1 + Cc1cc(N2CCOCC2)cc2[nH]c(-c3c(NC[C@@H](O)c4cccc(Cl)c4)cc[nH]c3=O)nc12 [BMS536924] (first compound 0.4 µM, partner dose 0.2 µM) | 235% | 171% | 70.7% | 192% | 137% | 267% | 139% | 100% | 109% | 93.2% | 138% | 154% | 151% | 110% | 50.8% | 162% | 48.6% | 125% | 36.2% |
| Cn1cnc2c(F)c(Nc3ccc(Br)cc3Cl)c(C(=O)NOCCO)cc21 [selumetinib] + NC(=O)Nc1cc(-c2cccc(F)c2)sc1C(=O)N[C@H]1CCCNC1 [AZD7762] (first compound 0.015 µM, partner dose 0.02 µM) | 134% | 91.1% | 138% | 113% | 85.2% | 160% | 116% | 66.8% | 66.4% | 97.6% | 67.6% | 111% | 57% | 115% | 73.2% | 50% | 162% | 49.7% | 61.7% |
| CC1(C)CCC(c2ccc(Cl)cc2)=C(CN2CCN(c3ccc(C(=O)NS(=O)(=O)c4ccc(N[C@H](CCN5CCOCC5)CSc5ccccc5)c(S(=O)(=O)C(F)(F)F)c4)cc3)CC2)C1 + C=CCn1c(=O)c2cnc(Nc3ccc(N4CCN(C)CC4)cc3)nc2n1-c1cccc(C(C)(C)O)n1 [MK1775] (first compound 0.4 µM, partner dose 0.02 µM) | 387% | 297% | 60.8% | 997% | 697% | 798% | 395% | 422% | 438% | 329% | 261% | 45.5% | 174% | 310% | 94% | 253% | 50.4% | 39.8% | 194% |
| NC(=O)c1ccc(N(C(N)=O)c2c(F)cccc2F)nc1-c1ccc(F)cc1F + Cc1cc(N2CCOCC2)cc2[nH]c(-c3c(NC[C@@H](O)c4cccc(Cl)c4)cc[nH]c3=O)nc12 [BMS536924] (first compound 0.4 µM, partner dose 0.2 µM) | 93.2% | 88.8% | 110% | 233% | 66% | 226% | 270% | 95.9% | 104% | 106% | 104% | 143% | 78.2% | 114% | 95.3% | 74.5% | 173% | 55.5% | 228% |
| CC(=O)O[C@@]12CO[C@@H]1C[C@H](O)[C@@]1(C)C(=O)[C@H](O)C3=C(C)[C@@H](OC(=O)[C@H](O)[C@@H](NC(=O)OC(C)(C)C)c4ccccc4)C[C@@](O)([C@@H](OC(=O)c4ccccc4)[C@H]21)C3(C)C [Docetaxel] + NC(=O)Nc1cc(-c2cccc(F)c2)sc1C(=O)N[C@H]1CCCNC1 [AZD7762] (first compound 0.0001 µM, partner dose 0.02 µM) | 133% | 98.4% | 6130% | 10900% | 376% | 241% | 132% | 129% | 283% | 124% | 590% | 298% | 253% | 424% | 210% | 205% | 350% | 101% | 145% |
| NC(=O)c1ccc(N(C(N)=O)c2c(F)cccc2F)nc1-c1ccc(F)cc1F + CC1(C)NC(=O)N(c2ccc([N+](=O)[O-])c(C(F)(F)F)c2)C1=O [nilutamide] (first compound 0.4 µM, partner dose 1 µM) | 444% | 71.6% | 76.6% | 117% | 76.7% | 139% | 84.5% | 65.3% | 74.3% | 91% | 213% | 41.5% | 101% | 91.9% | 22% | 63.6% | 333% | 48.6% | 61.5% |
| NC(=O)c1ccc(N(C(N)=O)c2c(F)cccc2F)nc1-c1ccc(F)cc1F + O=C(O)c1ccc(-c2c[nH]c3ncc(-c4ccccc4)cc23)cc1C1CCCC1 [GSK650394] (first compound 0.4 µM, partner dose 0.16 µM) | 94.1% | 183% | 62.7% | 113% | 82.9% | 217% | 115% | 100% | 82.8% | 135% | 84.5% | 59.2% | 98.6% | 49.9% | 92.8% | 159% | 99.1% | 119% | 64.8% |
| NC1(c2ccc(-c3nc4ccn5c(=O)[nH]nc5c4cc3-c3ccccc3)cc2)CCC1 + O=C(O)c1ccc(-c2c[nH]c3ncc(-c4ccccc4)cc23)cc1C1CCCC1 [GSK650394] (first compound 0.4 µM, partner dose 0.16 µM) | 85.5% | 89.5% | 102% | 78.2% | 44.4% | 230% | 120% | 84.3% | 90.5% | 109% | 314% | 155% | 166% | 105% | 99.1% | 35.1% | 41.8% | 68.1% | 83.8% |
| Cn1cnc2c(F)c(Nc3ccc(Br)cc3Cl)c(C(=O)NOCCO)cc21 [selumetinib] + O=C(Nc1cccc(Cl)c1)Nc1ncc(CCNc2ncnc3ccsc23)s1 [SNS314] (first compound 0.015 µM, partner dose 0.0008 µM) | 268% | 54.2% | 177% | 105% | 97.8% | 27% | 165% | 80% | 88.4% | 126% | 95.6% | 108% | 41.4% | 95.4% | 160% | 64.2% | 36.1% | 28.1% | 66.4% |
| NC(=O)c1ccc(N(C(N)=O)c2c(F)cccc2F)nc1-c1ccc(F)cc1F + C[C@@H]1CCN(C(=O)CC#N)C[C@@H]1N(C)c1ncnc2[nH]ccc12 [CP690550] (first compound 0.4 µM, partner dose 1 µM) | 66% | 81.7% | 99.7% | 73.5% | 135% | 198% | 103% | 83.8% | 83.7% | 91.7% | 88.7% | 86.5% | 63.2% | 108% | 88.3% | 133% | 82.2% | 38.1% | 60.5% |

Part of the list above, reformatted.
Structure (SMILES) | cleaved PARP positive nuclei fraction (501Mel) | cleaved PARP positive nuclei fraction (A101D) | cleaved PARP positive nuclei fraction (A2058) | cleaved PARP positive nuclei fraction (A375) | cleaved PARP positive nuclei fraction (C32) | cleaved PARP positive nuclei fraction (CBRC008) | cleaved PARP positive nuclei fraction (CBRC013) | cleaved PARP positive nuclei fraction (CBRC014) | cleaved PARP positive nuclei fraction (CBRC016) | cleaved PARP positive nuclei fraction (CBRC017) | cleaved PARP positive nuclei fraction (COLO792) | cleaved PARP positive nuclei fraction (COLO800) | cleaved PARP positive nuclei fraction (COLO829) | cleaved PARP positive nuclei fraction (G361) | cleaved PARP positive nuclei fraction (IPC-298) | cleaved PARP positive nuclei fraction (IST-MEL1) | cleaved PARP positive nuclei fraction (LB2518-MEL) | cleaved PARP positive nuclei fraction (LOXIMVI) | cleaved PARP positive nuclei fraction (MEL-HO)
NC(=O)c1ccc(N(C(N)=O)c2c(F)cccc2F)nc1-c1ccc(F)cc1F + CC1(C)NC(=O)N(c2ccc([N+](=O)[O-])c(C(F)(F)F)c2)C1=O [nilutamide] (first compound 0.4 µM, partner dose 1 µM) | 444% | 71.6% | 76.6% | 117% | 76.7% | 139% | 84.5% | 65.3% | 74.3% | 91% | 213% | 41.5% | 101% | 91.9% | 22% | 63.6% | 333% | 48.6% | 61.5%
NC(=O)c1ccc(N(C(N)=O)c2c(F)cccc2F)nc1-c1ccc(F)cc1F + O=C(O)c1ccc(-c2c[nH]c3ncc(-c4ccccc4)cc23)cc1C1CCCC1 [GSK650394] (first compound 0.4 µM, partner dose 0.16 µM) | 94.1% | 183% | 62.7% | 113% | 82.9% | 217% | 115% | 100% | 82.8% | 135% | 84.5% | 59.2% | 98.6% | 49.9% | 92.8% | 159% | 99.1% | 119% | 64.8%
